The record followed here is article doi:10.1101/2023.02.02.526882.

No constants are given. Whether binding was seen depends on the method and setting. Binding seen in cells or lysates may run through a third protein. Binding can be weak; no strength is given.

The assay concerns the target GFP-ZmLDAP1 (maize (Zea mays, inbred line B73)) (UniProt B8A1N1). Description: co-IP.

For the substance “ZmPUX10-6 × His (from UniProt A0A804LMB5)”, the binding entry was “binds”.
